The source of these data is publication PMC5868845.

Holding throughout (experiment): co-IP; 293FT cells transfected with the indicated plasmids (Girdin NT or CT domain; Flag-NT wild type or mutants), co-IP from lysate in IP lysis buffer, western blot
On the technique in general: A western blot detects proteins with antibodies after separation by electrophoresis.

Experiment [1] has as its target T1, Flag-tagged Girdin NT domain S233A (human) (UniProt Q3V6T2).
T1 sequence: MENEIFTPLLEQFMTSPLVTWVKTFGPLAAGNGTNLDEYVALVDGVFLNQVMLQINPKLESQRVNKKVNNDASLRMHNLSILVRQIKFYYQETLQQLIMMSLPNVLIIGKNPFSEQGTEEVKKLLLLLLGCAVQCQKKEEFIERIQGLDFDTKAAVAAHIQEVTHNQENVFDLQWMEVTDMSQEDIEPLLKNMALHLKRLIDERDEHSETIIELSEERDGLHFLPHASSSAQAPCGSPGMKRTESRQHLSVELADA

Experiment [2] has as its target T2, Flag-tagged Girdin NT domain S233A/S237A (AA) (human) (UniProt Q3V6T2).
T2 sequence: T1 sequence with S237A

For experiment [3], the target named is T3, Flag-tagged Girdin NT domain S237A (human) (UniProt Q3V6T2).
T3 sequence: T1 sequence with A233S, S237A

The target of experiment [4] is T4, Girdin amino terminal (NT) domain, expressed in 293FT cells for domain mapping (Fig 1E) (human) (UniProt Q3V6T2).
T4 sequence: T1 sequence with A233S

Positions count from the first letter of the chain named. Results are given in words; binding and its absence hold for the method and conditions named. Binding seen in cells or lysates may run through a third protein. Some entries that bind do so weakly or less than the wild type. For some of these results: Sequences can lack the tags named with a protein.

Take “4F2hc in lysates of 293FT cells transfected with Girdin domain plasmids (Fig 1E, Fig 2F) (from UniProt P08195 1-529)”: the binding result in experiment [1] is “no binding”; in experiment [2], “no binding”; in experiment [3] it was “no binding”; in experiment [4] it was “binds”.
